Reference: PubChem BioAssay AID504764 (Drosophila RNAi Screening Center, 2011)
In all, the deposit lists about 22,000 reagents; shown is an unselected part of those with a known target gene and a result. Of all reagents, 403 (1.9%) are marked active. 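Unnormalised raw counts per well; ratio z-scores behind the hit calls and whether each hit raises or lowers signal are not deposited.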 Reagents against one gene are numbered here. The record does not give: the amount of reagent.

Screen: 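Knock-downs that raise or lower a Notch target reporter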 (primary screen)
Cells: Drosophila Kc167 cells
Knock-down reagent: long dsRNA against Drosophila genes
Timing: about 5 days (4 days dsRNA, then 24 h after transfection)
Conditions: transfection of constitutively active membrane-tethered Notch lacking the extracellular domain, read 24 h later
Measurement: 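Firefly luciferase from an E(spl)m3 reporter with active Notch, plus control-promoter and uninduced reporter wells for normalisation; unnormalised counts, duplicate wells a and b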
Reading the numbers: induced reporter light, run 1, well a and induced reporter light, run 1, well b: higher = more light from the Notch target reporter with active Notch; control promoter light, run 1, well a and control promoter light, run 1, well b: higher = more light from the viral control promoter (cell number, transfection, viability); uninduced reporter light, run 1, well a: higher = more light from the Notch target reporter without active Notch
Call rule: 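Hit if the duplicate-averaged log2 ratio of induced to control-promoter light gives a plate-wise z beyond ±2, or induced to uninduced beyond ±1.8; weak-control or discordant-duplicate wells dropped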
Meaning of the calls: active = modifier hit (raised or lowered Notch signal); inactive = not a hit

Ssk (Snakeskin)
- induced reporter light, run 1, well a: 1.28e5
- induced reporter light, run 1, well b: 1.02e5
- control promoter light, run 1, well a: 80525
- control promoter light, run 1, well b: 84105
- uninduced reporter light, run 1, well a: 8610
- activity call: inactive

CG5853 #1
- induced reporter light, run 1, well a: 1.54e5
- induced reporter light, run 1, well b: 1.27e5
- control promoter light, run 1, well a: 1.40e5
- control promoter light, run 1, well b: 1.40e5
- uninduced reporter light, run 1, well a: 8635
- activity call: inactive

CG5853 #2
- induced reporter light, run 1, well a: 2.34e5
- induced reporter light, run 1, well b: 2.45e5
- control promoter light, run 1, well a: 2.09e5
- control promoter light, run 1, well b: 2.28e5
- uninduced reporter light, run 1, well a: 16328
- activity call: inactive

YME1L (YME1 like ATPase)
- induced reporter light, run 1, well a: 1.89e5
- induced reporter light, run 1, well b: 1.76e5
- control promoter light, run 1, well a: 1.79e5
- control promoter light, run 1, well b: 2.04e5
- uninduced reporter light, run 1, well a: 13078
- activity call: inactive

CG8774
- induced reporter light, run 1, well a: 1.44e5
- induced reporter light, run 1, well b: 1.44e5
- control promoter light, run 1, well a: 1.25e5
- control promoter light, run 1, well b: 1.07e5
- uninduced reporter light, run 1, well a: 10210
- activity call: inactive

CG11562
- induced reporter light, run 1, well a: 70340
- induced reporter light, run 1, well b: 51160
- control promoter light, run 1, well a: 41500
- control promoter light, run 1, well b: 20005
- uninduced reporter light, run 1, well a: 5080
- activity call: inactive

CG31224 #1
- induced reporter light, run 1, well a: 1.54e5
- induced reporter light, run 1, well b: 1.47e5
- control promoter light, run 1, well a: 2.29e5
- control promoter light, run 1, well b: 2.06e5
- uninduced reporter light, run 1, well a: 15100
- activity call: inactive

CG31224 #2
- induced reporter light, run 1, well a: 2132
- induced reporter light, run 1, well b: 950
- control promoter light, run 1, well a: 2860
- control promoter light, run 1, well b: 2345
- uninduced reporter light, run 1, well a: 250
- activity call: inactive

Cpr67Fb (Cuticular protein 67Fb)
- induced reporter light, run 1, well a: 1.71e5
- induced reporter light, run 1, well b: 1.43e5
- control promoter light, run 1, well a: 2.13e5
- control promoter light, run 1, well b: 2.47e5
- uninduced reporter light, run 1, well a: 8745
- activity call: inactive

Reprinted from above, 2 entries:
CG31224 #2
- induced reporter light, run 1, well a: 2132
- induced reporter light, run 1, well b: 950
- control promoter light, run 1, well a: 2860
- control promoter light, run 1, well b: 2345
- uninduced reporter light, run 1, well a: 250
- activity call: inactive

Cpr67Fb (Cuticular protein 67Fb)
- induced reporter light, run 1, well a: 1.71e5
- induced reporter light, run 1, well b: 1.43e5
- control promoter light, run 1, well a: 2.13e5
- control promoter light, run 1, well b: 2.47e5
- uninduced reporter light, run 1, well a: 8745
- activity call: inactive

Further results follow:
mGluR (metabotropic Glutamate Receptor)
- induced reporter light, run 1, well a: 1.18e5
- induced reporter light, run 1, well b: 1.33e5
- control promoter light, run 1, well a: 1.79e5
- control promoter light, run 1, well b: 2.12e5
- uninduced reporter light, run 1, well a: 10735
- activity call: inactive

CG31088
- induced reporter light, run 1, well a: 1.41e5
- induced reporter light, run 1, well b: 1.42e5
- control promoter light, run 1, well a: 1.19e5
- control promoter light, run 1, well b: 1.67e5
- uninduced reporter light, run 1, well a: 10945
- activity call: inactive

Lrr47 (Leucine-rich repeat 47)
- induced reporter light, run 1, well a: 2.38e5
- induced reporter light, run 1, well b: 2.74e5
- control promoter light, run 1, well a: 2.43e5
- control promoter light, run 1, well b: 3.02e5
- uninduced reporter light, run 1, well a: 19105
- activity call: inactive

CG33689
- induced reporter light, run 1, well a: 1.50e5
- induced reporter light, run 1, well b: 1.37e5
- control promoter light, run 1, well a: 2.37e5
- control promoter light, run 1, well b: 2.75e5
- uninduced reporter light, run 1, well a: 15160
- activity call: inactive

mxt (mextli)
- induced reporter light, run 1, well a: 1.08e5
- induced reporter light, run 1, well b: 1.03e5
- control promoter light, run 1, well a: 97245
- control promoter light, run 1, well b: 97985
- uninduced reporter light, run 1, well a: 13492
- activity call: inactive

Vinc (Vinculin)
- induced reporter light, run 1, well a: 1.36e5
- induced reporter light, run 1, well b: 1.58e5
- control promoter light, run 1, well a: 2.04e5
- control promoter light, run 1, well b: 2.48e5
- uninduced reporter light, run 1, well a: 12215
- activity call: inactive

Meics (Meiotic central spindle)
- induced reporter light, run 1, well a: 2.11e5
- induced reporter light, run 1, well b: 1.61e5
- control promoter light, run 1, well a: 2.41e5
- control promoter light, run 1, well b: 2.24e5
- uninduced reporter light, run 1, well a: 8775
- activity call: inactive

CG11523
- induced reporter light, run 1, well a: 1.37e5
- induced reporter light, run 1, well b: 1.29e5
- control promoter light, run 1, well a: 86445
- control promoter light, run 1, well b: 96730
- uninduced reporter light, run 1, well a: 9125
- activity call: inactive

beat-Ib (beaten path Ib)
- induced reporter light, run 1, well a: 1.31e5
- induced reporter light, run 1, well b: 1.36e5
- control promoter light, run 1, well a: 1.60e5
- control promoter light, run 1, well b: 1.57e5
- uninduced reporter light, run 1, well a: 11565
- activity call: inactive
